In this assay the target is T1, His-tagged LAGE3 (human) (UniProt Q14657).
T1 sequence: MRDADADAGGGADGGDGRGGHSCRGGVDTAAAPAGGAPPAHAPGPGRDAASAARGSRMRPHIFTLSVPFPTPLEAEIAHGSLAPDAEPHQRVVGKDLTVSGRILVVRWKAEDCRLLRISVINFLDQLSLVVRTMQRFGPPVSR
Briefly: co-purification of co-expressed proteins; human 4-subunit KEOPS co-expressed in Sf9 cells; Ni-NTA column by His-tagged LAGE3 and S200 sizing column.

Results are given in words; binding and its absence hold for the method and conditions named. Some entries that bind do so weakly or less than the wild type. Tags and fused reporters may be left off the sequences shown.

Regarding “TPRKB of the human 4-subunit KEOPS complex (Sf9) (from UniProt Q9Y3C4 1-175)”, the binding result is on record as “binds”.
